Experimental data published in PubChem BioAssay AID504834 (National Center for Advancing Translational Sciences (NCATS), 2011).
Hit rate of the full screen: of about 320,000 compounds, about 22,000 (6.9%) were called active. Inconclusive results, whose numbers are uncertain, are shown with a selection of clear calls. The call rests on the fitted dose curve; in most records, active means well fitted inhibition curve with a large enough effect; inconclusive means small, poorly fitted or top-dose-only effect, or another doubt; inactive means no such curve, though single readings can be large or run the other way. A potency beside an inconclusive call is a rough fit, not a confirmed value.

Assay: Primary qHTS for delayed death inhibitors of the malarial parasite plastid, 96 hour incubation
Conditions: P. falciparum luciferase reporter growth; series mostly up to 28.7 µM
Summary of the method: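 Two-generation exposure (96 h) targets delayed-death phenotype. Reporter parasites carrying integrated firefly luciferase, in red cells at 2% hematocrit and 0.05% parasitemia final, kept at 37 C, 5% CO2; luminescence loss indicates inhibition.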
Potency means the concentration at half of the fitted maximal effect.

SMILES	Potency
O=C(NC(=S)Nc1cccc([N+](=O)[O-])c1)C1CCCC1	inactive
CCOC(=O)NC(=S)Nc1ccc(C(C)(C)C)cc1	inconclusive: 9.28 µM [inhibitor, partial curve]
CC(=O)Nc1ccc(S(=O)(=O)Nc2ccn(Cc3ccccc3Cl)n2)cc1	inconclusive: 10.4 µM [inhibitor, single point]
COc1ccc2c(c1)[nH]c1c(N3CCSCC3)ncnc12	active: 6.57 µM
N#CCSc1ccc(-c2nc3ccccc3[nH]2)cn1	inconclusive: 18.5 µM [inhibitor, single point]
Cc1nc(C(F)(F)F)nc(Nc2ccc(Br)cc2)c1C#N	inconclusive: 3.7 µM [inhibitor, single point]
CCOC(=O)Nc1ccc2c(c1)ncn2C1CCCCC1	inactive
OCc1ccc(O)c2ncccc12	inconclusive: 7.38 µM [inhibitor, partial curve]
COc1ccc(CNC(=O)CSc2ccc(Br)cc2)cc1OC	inconclusive: 18.5 µM [inhibitor, single point]
O=C(Cc1cccs1)Nc1nc(-c2cccnc2)cs1	inconclusive: 10.4 µM [inhibitor, single point]
COc1cccc(CNC(=O)CCC(=O)N2CCOCC2)c1	inactive
COc1ccc(C2(CNC(=O)c3ccc(OCC(C)C)cc3)CCOCC2)cc1	inconclusive: 13.1 µM [inhibitor, partial curve]
COc1ccc(N2CCCC2)c(NC(=O)c2ccc([N+](=O)[O-])o2)c1	inconclusive: 18.5 µM [inhibitor, single point]
C#CCSc1nnc(-c2c[nH]c3ccccc23)n1C	inactive
O=C(Cn1c2c(c(=O)n3ncnc13)CCC2)N/N=C/c1ccc(Cl)cc1	inconclusive: 18.5 µM [inhibitor, single point]
CN(Cc1ccccc1)C(=O)C1CCN(S(=O)(=O)c2ccc3nc4c(c(C(=O)O)c3c2)CCCC4)CC1	inconclusive: 0.828 µM [inhibitor, partial curve, poor fit]
CCN(C(=O)c1ccc(S(=O)(=O)N2CCOCC2)cc1)C1CCS(=O)(=O)C1 (configuration not stated)	inactive
COc1ccc(S(=O)(=O)N2CCN=C2SCc2cccc(F)c2)cc1	inconclusive: 13.1 µM [inhibitor, single point]
CCOc1cc(CNC2CCCC2)cc(Cl)c1OCc1ccccc1	inconclusive: 0.465 µM [inhibitor, partial curve, poor fit]
CCc1[nH]nc2c1C(c1ccsc1)C(C#N)=C(N)O2 (configuration not stated)	active: 10.4 µM
CCOc1ccc(Cl)cc1CNCCNCC(C)O (configuration not stated)	inconclusive: 1.17 µM [inhibitor, partial curve, poor fit]
O=C(NC1CCCC1)C1C2C=CC(C2)C1C(=O)N1CCOCC1 (configuration not stated)	active: 9.28 µM
O=C(c1cccs1)N1N=C(c2ccccc2)CC1c1ccccc1 (configuration not stated)	active: 2.62 µM
CCN(CC)c1ccc(/C=N/N=C(N)N)c(O)c1	inconclusive: 1.47 µM [inhibitor, full curve, poor fit]

SMILES	Potency
COc1ccc(NS(=O)(=O)c2ccc(N3CCOCC3)c(NC(=O)c3ccc(OC)cc3)c2)cc1	active: 11.7 µM
Cc1ccccc1OCC(=O)NC(Cc1c[nH]c2ccccc12)C(=O)O (configuration not stated)	inconclusive: 18.5 µM [inhibitor, single point]
O=C(CN1CCCCC1)Nc1cccc(-n2cnnn2)c1	inconclusive: 5.86 µM [inhibitor, partial curve, poor fit]
COC(=O)Cc1c(C)c2ccc(OCC(=O)N3CCCC(C)C3)c(C)c2oc1=O (configuration not stated)	inactive
O=C(NNC(=S)Nc1ccc(Cl)cc1Cl)c1ccc(N2CCOCC2)c([N+](=O)[O-])c1	inconclusive: 18.5 µM [inhibitor, single point]
COc1cc(NC(=O)COC(=O)c2cnccn2)c(C)cc1[N+](=O)[O-]	inactive
O=C(CSc1cn(CCNC(=O)c2ccc3ccccc3c2)c2ccccc12)NCc1ccco1	inconclusive: 16.5 µM [inhibitor, partial curve, poor fit]
COc1ccc(Oc2cc(C(F)(F)F)nc(N(C)C)n2)cc1	inactive
CC(C)(OC(=O)c1cccs1)c1cc2ccccc2c(=O)o1	inconclusive: 8.28 µM [inhibitor, single point]
CC(Nc1ccc2c(c1)OCCO2)C(=O)N1CCc2ccccc21 (configuration not stated)	inactive
CC(=O)NCc1cn2c(C)csc2n1	inactive
O=C1CCCN1C(=O)CCC(=O)N1CCCC1=O	inconclusive: 18.5 µM [inhibitor, single point]
COc1ccccc1OCC(=O)Nc1nc(C)c(C)s1	inconclusive: 8.28 µM [inhibitor, partial curve, poor fit]
O=C(c1ccc(F)cc1)C1CCN(C(=O)c2ccc(F)cc2)CC1	inconclusive: 18.5 µM [inhibitor, single point]
CCOC(=O)C1CCN(S(=O)(=O)c2ccc(-c3nc4ccccc4s3)s2)CC1	inconclusive: 18.5 µM [inhibitor, single point]
O=C1CCc2cc(NS(=O)(=O)c3ccc(Cl)cc3)cc3c2N1CC3	inconclusive: 10.4 µM [inhibitor, single point]
CCC1(C(=O)O)NC(c2cc(OC)ccc2O)C2C(=O)N(Cc3ccccc3)C(=O)C21 (configuration not stated)	inconclusive: 18.5 µM [inhibitor, single point]
Cc1cc(C)c(C#N)c(SCC(=O)NC2CC2)n1	inconclusive: 18.5 µM [inhibitor, single point]
COc1ccccc1C(=O)NCCC(=O)NCC1CCCO1 (configuration not stated)	inactive
O=C(Nc1cc([N+](=O)[O-])ccc1F)c1ccc2ccccc2c1	inconclusive: 18.5 µM [inhibitor, single point]
O=C1NC(SCCCF)=N/C1=C/c1ccc(-n2cncn2)cc1	inconclusive: 1.65 µM [inhibitor, full curve, poor fit]
CSc1nccc(Oc2cncc(Cl)c2)n1	inactive
COc1ccc(CCNC(=O)CCNC(=O)N2CC(=O)Nc3ccccc32)cc1	inconclusive: 1.04 µM [inhibitor, partial curve, poor fit]
O=C(CSc1ccc(-c2ccco2)nn1)N1CCCC1	inactive

SMILES	Potency
O=C(NCC1CCCO1)c1cc(C(=O)c2ccc(Cl)cc2Cl)c[nH]1 (configuration not stated)	inconclusive: 4.15 µM [inhibitor, single point]
CCCCCCC1CC(=O)NC(=S)N1 (configuration not stated)	inactive
CN(Cc1ccc(F)cc1)C(=O)c1cc(COc2ccc(F)cc2F)on1	inconclusive: 5.22 µM [inhibitor, partial curve, poor fit]
CCOC(=O)c1c(NC(=O)CSc2nnc(-c3c[nH]c4ccccc34)n2CCOC)sc2c1CCCCC2	active: 9.28 µM
c1ccc2sc(-c3ccc4c(c3)OCO4)nc2c1	inactive
COc1cc(NC(=O)CSc2nnnn2Cc2ccc3c(c2)OCO3)cc(OC)c1	inconclusive: 18.5 µM [inhibitor, single point]
COc1cc(NC(=O)[C@@H]2CCCN(S(=O)(=O)c3cccc4cccnc34)C2)cc(OC)c1OC	inconclusive: 13.1 µM [inhibitor, partial curve, poor fit]
COc1cc(N2CCCC2)c(OC)cc1C=O	inactive
Cc1ccc2c(c1)C1NC(=S)NC(C)(O2)C1C(=O)Nc1ccc(Cl)cc1 (configuration not stated)	inconclusive: 10.4 µM [inhibitor, partial curve, poor fit]
C/C(=N\NS(=O)(=O)c1ccc(C(C)(C)C)cc1)c1ccccc1	inconclusive: 13.1 µM [inhibitor, single point]
O=C(NCc1ccc(F)cc1)C1CCN(S(=O)(=O)N2CCOCC2)CC1	inconclusive: 4.15 µM [inhibitor, single point]
COc1cccc(CNC(=O)C(Cc2ccccc2)n2cccc2)c1 (configuration not stated)	inconclusive: 0.928 µM [inhibitor, partial curve]
O=C(CSCc1ccccc1F)NCc1ccc(F)cc1	inconclusive: 9.28 µM [inhibitor, partial curve, poor fit]
Cc1cc(N2C(=O)C(O)=C(C(=O)c3ccc(C)o3)C2c2cccs2)no1 (configuration not stated)	inconclusive: 9.28 µM [inhibitor, single point]
COc1ccccc1C(=O)NNC(=O)c1ccc(NC(=O)CC(C)C)cc1	inactive
O=C(c1cccc(S(=O)(=O)N2CCCC2)c1)N1CCCC(C(F)(F)F)C1 (configuration not stated)	inactive
CCCCC(NC(=O)c1cccc(Br)c1)C(=O)O (configuration not stated)	inconclusive: 9.28 µM [inhibitor, partial curve, poor fit]
NS(=O)(=O)c1ccc(N/N=C/c2ccncc2)cc1	inconclusive: 4.65 µM [inhibitor, partial curve]
CC(C)CNS(=O)(=O)c1ccc(OCC(=O)Nc2ccc3c(c2)OCCO3)cc1	inconclusive: 14.7 µM [inhibitor, partial curve, poor fit]
O=c1[nH]c2cc3c(cc2cc1CN(Cc1ccco1)C(=S)NCC1CCCO1)OCCO3 (configuration not stated)	inconclusive: 11.7 µM [inhibitor, partial curve]
COc1cc(C(=O)NNC(=O)c2cccn2C)cc(OC)c1OC	inactive
CCOP(=O)(OCC)c1nc(-c2ccc(C)cc2)oc1NCc1ccccc1	inactive
CC12CCC(C(=O)N(CSC(=S)N/N=C\c3ccccc3Cl)C1=O)C2(C)C (configuration not stated)	inconclusive: 14.7 µM [inhibitor, single point]
COc1cc(O)c(C(CCN2CCN(c3ccccc3)CC2)c2ccc(N(C)C)cc2)c(OC)c1 (configuration not stated)	active: 0.657 µM

As a working copy, some entries already given.
SMILES	Potency
CCOC(=O)c1c(NC(=O)CSc2nnc(-c3c[nH]c4ccccc34)n2CCOC)sc2c1CCCCC2	active: 9.28 µM
c1ccc2sc(-c3ccc4c(c3)OCO4)nc2c1	inactive
COc1cc(NC(=O)CSc2nnnn2Cc2ccc3c(c2)OCO3)cc(OC)c1	inconclusive: 18.5 µM [inhibitor, single point]
